In paper PMC4917820, “Structural basis for autoinhibition and its relief of MOB1 in the Hippo pathway” (Scientific Reports, 2016):
No constants are given. Whether binding was seen depends on the method and setting.

What was measured:
[1] = target: full-length MOB1B (1-216) (mouse) (UniProt Q8BPB0); assay: AUC; sedimentation velocity, 20 °C, 19 μM protein, 20 mM Tris-HCl (pH 7.5), 0.1 M NaCl, scanned at 280 nm; both purified
[2] = target: full-length MOB1B (1-216) (mouse) (UniProt Q8BPB0); assay: AUC; sedimentation velocity, 20 °C, 200 μM full-length MOB1B, 20 mM Tris-HCl (pH 7.5), 0.1 M NaCl, scanned at 300 nm; both purified
[3] = target: T1, double-mutant T12D/T35D MOB1B (1-216) (mouse, UniProt Q8BPB0 1-216, T12D | T35D); assay: AUC; sedimentation velocity, 20 °C, 19 μM protein, 20 mM Tris-HCl (pH 7.5), 0.1 M NaCl, scanned at 280 nm; both purified
T1 construct: MOB1B, mouse, residues 1-216, with T12D and T35D; everywhere else it is T12D/T35D; also called phosphomimic (T12D/T35D) double-mutant; MOB1B(T12/35D); source: E. coli, purified by the same procedure as full-length MOB1B (GST removed); not shown: GST, N-terminal, cleaved
T1 sequence (looked up): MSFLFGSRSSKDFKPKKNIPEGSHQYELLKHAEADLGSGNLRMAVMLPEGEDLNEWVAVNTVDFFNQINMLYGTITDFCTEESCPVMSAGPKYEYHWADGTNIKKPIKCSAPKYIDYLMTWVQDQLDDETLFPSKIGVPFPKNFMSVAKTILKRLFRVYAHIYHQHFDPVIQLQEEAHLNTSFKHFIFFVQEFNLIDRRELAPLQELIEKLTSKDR

[4] = target: T2, N-terminal truncated MOB1B (33-216) (mouse, UniProt Q8BPB0 33-216); assay: as above
T2 construct: MOB1B, mouse, residues 33-216; also called N-terminal 32-residue truncated form; N-truncated MOB1B; source: E. coli, purified (Glutathione Sepharose 4B, HRV 3C digestion, HiTrap Q gradient, Superdex 75pg); not shown: GST, N-terminal, cleaved
T2 sequence (looked up): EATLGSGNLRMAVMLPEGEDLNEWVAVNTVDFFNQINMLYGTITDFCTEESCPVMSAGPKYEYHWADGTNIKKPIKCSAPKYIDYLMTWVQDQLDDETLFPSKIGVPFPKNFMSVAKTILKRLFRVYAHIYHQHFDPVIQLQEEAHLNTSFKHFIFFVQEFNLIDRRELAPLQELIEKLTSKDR

B1: full-length MOB1B (1-216) (protein, UniProt Q8BPB0 1-216)
chain: MSFLFGSRSSKTFKPKKNIPEGSHQYELLKHAEATLGSGNLRMAVMLPEGEDLNEWVAVNTVDFFNQINMLYGTITDFCTEESCPVMSAGPKYEYHWADGTNIKKPIKCSAPKYIDYLMTWVQDQLDDETLFPSKIGVPFPKNFMSVAKTILKRLFRVYAHIYHQHFDPVIQLQEEAHLNTSFKHFIFFVQEFNLIDRRELAPLQELIEKLTSKDR
For B1, which binding [1] is on record?
The binding was “no binding (tested: 19 μM)”.

And the binding [2]?
Its binding is “no binding (tested: 200 μM)”.

B2: double-mutant T12D/T35D MOB1B (1-216) (protein, UniProt Q8BPB0 1-216)
chain: MSFLFGSRSSKDFKPKKNIPEGSHQYELLKHAEADLGSGNLRMAVMLPEGEDLNEWVAVNTVDFFNQINMLYGTITDFCTEESCPVMSAGPKYEYHWADGTNIKKPIKCSAPKYIDYLMTWVQDQLDDETLFPSKIGVPFPKNFMSVAKTILKRLFRVYAHIYHQHFDPVIQLQEEAHLNTSFKHFIFFVQEFNLIDRRELAPLQELIEKLTSKDR
B2 was tested. Which binding [3] did it give?
Its binding is “no binding (tested: 19 μM)”.

B3: N-terminal truncated MOB1B (33-216) (domain or fragment, UniProt Q8BPB0 33-216)
chain: EATLGSGNLRMAVMLPEGEDLNEWVAVNTVDFFNQINMLYGTITDFCTEESCPVMSAGPKYEYHWADGTNIKKPIKCSAPKYIDYLMTWVQDQLDDETLFPSKIGVPFPKNFMSVAKTILKRLFRVYAHIYHQHFDPVIQLQEEAHLNTSFKHFIFFVQEFNLIDRRELAPLQELIEKLTSKDR
B3 was tested. Which binding [4] did it give?
The binding was “no binding (tested: 19 μM)”.
